In PubChem BioAssay AID493014 (National Center for Advancing Translational Sciences (NCATS), 2011) one finds AC50 data, which are given here for 63 compounds.

SMILES strings stand for the structures. Some of the results follow. The main result of the screen is listed elsewhere. These columns were measured beside it and carry no call. The list favours compounds with an active or inconclusive main result. The note in brackets gives the kind of curve behind each potency; many fits are weak.

A short description of the test: qHTS Assay to Find Inhibitors of Chronic Active B-Cell Receptor Signaling. The note with it: ABC-DLBCL IkBa-CBG/CBR reporter, luminescence ratio (green luciferase fused to IkBa over red control in TMD8 lymphoma cells), 4 h. In outline:
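Cell line TMD8 (human ABC DLBCL), stably expressing tet-inducible CBG68-IkBa fusion and CBR; IMDM/0.5% FBS; cpd up to 46 uM; dox induction, 4 h, 37C/5% CO2; dual luminescence; green/red ratio; MG132 control.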

Setting [1] is: measured here: CBR red luminescence, cell number.
Where [2] appears, read: measured here: IkBa-CBG green luminescence.

Take `COC(=O)c1cc2oc3ccccc3c2n1CC(=O)N1CCCc2ccccc21`: the AC50 – broadly, the concentration giving half of the maximal activity seen – under setting [1] is 0.92 µM [falling, full curve, poor fit].

As for `COc1cccc(C(N)CC(=O)O)c1` (configuration not stated), under setting [1], the AC50 was 29.1 µM [rising, single point].

Turning to `O=C(NCc1ccccc1)c1ccc2nc(-c3ccco3)c(-c3ccco3)nc2c1`, the AC50 runs as follows: under setting [1], 9.2 µM [falling, partial curve]; under setting [2], 3.66 µM [rising, partial curve, poor fit].

As to `CC1(c2ccc([N+](=O)[O-])cc2)Nc2ccccc2S1` (configuration not stated), under setting [1], the AC50 is 0.1 µM [rising, full curve, poor fit].

As to `N=c1c(C(=O)NCc2ccc(F)cc2)cc2c(=O)n3ccccc3nc2n1Cc1cccnc1`, the AC50 under setting [1] is 29.1 µM [rising, single point].

As for `COc1cccc(N(C(=O)c2ccco2)c2nc(-c3sc(NC(=O)c4ccco4)nc3C)cs2)c1`, the AC50 under setting [1] is 7.94 µM [falling, partial curve].

Regarding `COc1ccc(C(=O)Nc2ccc(N3CCCC3)cc2)cc1Br`, under setting [1], the AC50 is 0.562 µM [falling, full curve, poor fit].

Take `CCOc1ccc(CCNC(=O)c2ccc3nc(N4CCOCC4)sc3c2)cc1OCC`: the AC50 under setting [1] was 11.2 µM [rising, partial curve].

For the compound `Cc1ccc2nc(C)c(C(=O)N/N=C/c3cccs3)n2c1`, the AC50 under setting [1] was 11.6 µM [rising, partial curve, poor fit].

Take `CCN(CC)S(=O)(=O)c1ccc(OC)c(NS(=O)(=O)c2ccc(F)cc2)c1`: under setting [1], the AC50 was 3.98 µM [rising, single point].

`Cc1cc(NC(=O)NC(=O)c2ccccc2)no1`: the AC50 under setting [1] was 5.62 µM [falling, partial curve, poor fit].

As to `Cc1cc(C)cc(N(C(=O)CNS(=O)(=O)c2ccccc2)C(C(=O)NCc2ccccc2)c2ccc(C)o2)c1` (configuration not stated), under setting [1], the AC50 was 29.1 µM [falling, single point].

Consider `O=C(NNC(=O)c1cncc(Br)c1)c1ccncc1`, for which, under setting [1], the concentration at half-maximal activity (AC50) is 29.1 µM [falling, single point].

In the case of `COc1cccc(C(C[N+](=O)[O-])c2c(C)[nH]n(-c3ccccc3)c2=O)c1` (configuration not stated), the AC50 under setting [1] was 20 µM [rising, single point].

With `CCCC1CC(C)(C(=O)CSc2n[nH]c(-c3ccccc3)n2)OC1=O` (configuration not stated), the AC50 under setting [1] was 2.06 µM [rising, partial curve, poor fit].

As to `CCOC(=O)/C(C#N)=C1/SC(CCO)C(=O)N1c1ccccc1` (configuration not stated), under setting [1], the AC50 is 14.1 µM [falling, single point].

As to `Cc1c(CCC(=O)NCCC(=O)O)c(=O)oc2c(C)c3oc4c(c3cc12)CCCC4`, the AC50 by setting is: under setting [1], 3.98 µM [rising, partial curve, poor fit]; under setting [2], 3.55 µM [falling, full curve].

With `NC(=S)n1[nH]c(-c2ccc([N+](=O)[O-])cc2)c(N=Nc2ccc(Cl)cc2)c1=O`, under setting [2], the AC50 was 8.91 µM [falling, partial curve].

For the compound `C=CCn1c(SCc2ccc(C(=O)Nc3ccccc3)cc2)nnc1-c1ccccc1`, under setting [1], the AC50 is 4.47 µM [falling, partial curve, poor fit].

For the compound `CC(C)(C)OC(=O)N[C@H](/C=C/c1ccccc1)C(=O)OC(C)(C)C`, the AC50 under setting [1] is 5.8 µM [rising, partial curve].

With `O=C(/C=C/Nc1ccc(F)cc1)c1ccco1`, the AC50 under setting [1] is 29.1 µM [falling, single point].

For `Cc1ccc(-c2noc(CSc3nnc(-c4ccccc4)n3C)n2)cc1`, the AC50 under setting [1] is 2.59 µM [rising, partial curve, poor fit].

Turning to `CC(C)Cc1cc(C(=O)Nc2ccc(Br)cc2)no1`, under setting [1], the AC50 was 3.55 µM [falling, partial curve, poor fit].

For `Nn1c(C2CCCCC2)nc2ccccc2c1=O`, the AC50 under setting [1] is 12.6 µM [rising, single point].

Turning to `Cc1c(NC(=O)c2ccccc2N)cccc1C(=O)O`, under setting [1], the AC50 was 22.4 µM [falling, single point].

As for `CCOC(=O)C1CCCN(C(=O)c2sc3nc(C)nc(N(CC)CC)c3c2C)C1` (configuration not stated), the AC50 under setting [1] was 16.4 µM [falling, single point].

With `O=C(NC1CCCCC1)c1cnn2c(C(F)(F)F)cc(-c3ccco3)nc12`, the AC50 under setting [1] was 4.47 µM [rising, full curve, poor fit].

For the compound `CC(C)N(Cc1ccc(F)cc1)C(=O)c1cc2ccccc2oc1=O`, the concentration at half-maximal activity (AC50) under setting [1] was 10 µM [rising, partial curve, poor fit].

With `CCCc1cc(=O)oc2cc(C)cc(OCC(=O)Nc3ccc(CN4CCOCC4)cc3)c12`, the AC50 under setting [1] is 4.47 µM [falling, partial curve, poor fit].

For `CC1CCN(S(=O)(=O)c2ccc(C(=O)N3CCCCC3C(=O)O)cc2)CC1` (configuration not stated), the AC50 under setting [1] is 14.6 µM [rising, partial curve, poor fit].

With `Cc1ccc2cccc(NC(=O)c3ccc(Br)o3)c2n1`, the AC50 under setting [1] is 10 µM [rising, partial curve, poor fit].

In the case of `CCCCOc1ccc(-c2ncc(Cl)cn2)cc1`, the concentration at half-maximal activity (AC50) under setting [1] was 0.366 µM [rising, full curve].

Turning to `COc1ccc(N2C(=O)c3ccccc3NC23CCCCC3)cc1`, the AC50 under setting [1] was 35.5 µM [falling, single point].

Turning to `Cc1[nH]n(-c2ccccc2)c(=O)c1C(=O)Nc1ccccc1`, the AC50 under setting [1] was 7.08 µM [falling, partial curve].

For `CC(=O)NC(=C(Cl)Cl)S(=O)(=O)c1ccccc1`, the AC50 under setting [1] was 35.5 µM [falling, single point].

For `O=S(=O)(c1ccccc1)c1nc(-c2cccs2)oc1NCc1cccnc1`, the AC50 under setting [1] is 29.1 µM [falling, single point] and the AC50 under setting [2] is 20.6 µM [rising, partial curve, poor fit].

With `COc1ccc(CCNc2oc(-c3ccc(OC)c(OC)c3)nc2P(=O)(OC)OC)cc1OC`, the AC50 under setting [2] is 20.6 µM [falling, partial curve].

`COc1ccc(C(=O)Nc2cccc(NC(=O)c3ccc(OC)c(OC)c3)n2)cc1OC`: the AC50 under setting [1] is 10 µM [falling, partial curve, poor fit].

In the case of `COc1ccc(-n2nc3cc(C)c(N)cc3n2)cc1Cl`, the AC50 under setting [1] was 1.12 µM [rising, full curve, poor fit].

With `COc1ccc(NC(=O)/C(C#N)=C\c2cc(C)n(-c3ccc(Oc4ccc([N+](=O)[O-])cn4)cc3)c2C)cc1`, the AC50 under setting [1] was 13 µM [falling, single point].

In the case of `Nc1nc(Br)c2c(F)cccc2c1-c1ccc(F)cc1`, under setting [1], the AC50 was 11.2 µM [rising, partial curve].

Consider `CC(=O)N1c2ccccc2C2(O)N=C(C)SC12` (configuration not stated), for which the AC50 under setting [1] was 6.51 µM [falling, partial curve, poor fit].

`COC(=O)CCC(=O)Nc1ccc(S(=O)(=O)N2CCCCCC2)cc1`: the AC50 under setting [1] is 16.4 µM [falling, single point].

Regarding `COc1ccc(-n2c(SCc3cccnc3)nc3c(c2=O)SCC3)cc1OC`, the AC50 under setting [1] was 0.398 µM [falling, full curve, poor fit].

Consider `COc1cc2c(cc1OC)C(C)N(C(=O)c1cc3c(s1)-c1ccccc1OC3)CC2` (configuration not stated), for which the AC50 under setting [1] is 32.6 µM [falling, single point].

With `O=C(Nc1ccc2oc(=O)ccc2c1)c1cc([N+](=O)[O-])ccc1N1CCOCC1`, under setting [1], the AC50 was 7.08 µM [falling, full curve, poor fit].

With `Cc1cc(O)c(C2=Nc3ccccc3SC(c3ccc(Cl)cc3)C2)c(=O)o1` (configuration not stated), the AC50 under setting [1] is 0.731 µM [falling, full curve, poor fit].

For the compound `C[C@H](CO)N1C[C@H](C)[C@@H](CN(C)Cc2ccccc2)Oc2ccc(NC(=O)CCCCCC(=O)Nc3ccccc3N)cc2C1=O`, the AC50 under setting [1] is 20.6 µM [rising, single point].

As for `COc1cccc(CNC(=O)Cc2ccc(Br)cc2)c1`, the AC50 under setting [1] is 13 µM [falling, partial curve].

Consider `C/C=C/C=C/C(=O)O`, for which the AC50 under setting [1] was 29.1 µM [rising, single point].

Take `CCc1cccc(C)c1N=Cc1c(O)c2ccccc2oc1=O`: under setting [1], the AC50 is 1.26 µM [falling, full curve].

As to `C=C(C)COc1ccc2c(C)c(CC(=O)OC)c(=O)oc2c1C`, the AC50 reads like this: under setting [1], 4.11 µM [falling, single point]; under setting [2], 3.26 µM [rising, partial curve, poor fit].

On to `COCc1[nH]nc2c1C(c1ccnc3ccccc13)C(C#N)=C(N)O2` (configuration not stated), for which the half-maximal activity concentration (AC50) under setting [1] is 6.31 µM [falling, single point].

`Cc1ccc(C(=O)NNC(=O)c2cc(C)nc3ccccc23)cc1`: the AC50 under setting [1] was 20.6 µM [rising, single point].

For the compound `CCN(CC)C(=O)c1c2c(nc3ccccc13)-c1ccccc1CC2`, under setting [1], the AC50 was 5.8 µM [falling, partial curve].

For the compound `Oc1ccccc1N1CCN(c2ncnc3sc(-c4ccccc4)cc23)CC1`, the AC50 under setting [1] is 11.2 µM [falling, single point].

With `CCN=c1sc(C(=O)OC)cc(=O)n1CC`, under setting [1], the AC50 was 3.66 µM [falling, partial curve, poor fit].

Regarding `CN(C)C(=O)c1cc(Cl)ccc1Sc1cc(Cl)ccc1Cl`, under setting [1], the AC50 was 16.4 µM [falling, single point].

Turning to `COc1cc(-n2c(=O)c3ccccc3n(CC(=O)OCc3ccccc3)c2=O)cc(OC)c1OC`, the AC50 under setting [1] is 15.8 µM [rising, partial curve, poor fit].

Turning to `COc1cccc(C(=O)N/N=C(\C)CC(=O)Nc2ccc(N(C)C)cc2)c1`, the AC50 under setting [1] was 1.78 µM [falling, full curve].

On to `O=C(Cn1nc2sc3ccccc3n2c(=O)c1=O)c1cccs1`, for which the AC50 under setting [1] was 0.1 µM [rising, full curve, poor fit].

`CC1=C(C(=O)OC2CCCCC2)C(c2cccs2)n2c(nc3ccccc32)N1` (configuration not stated): the AC50 under setting [1] is 18.4 µM [falling, partial curve].

In the case of `Cc1ccccc1C(=O)Nc1ccc2c(c1)C(=O)NC2=O`, under setting [1], the AC50 is 11.2 µM [falling, partial curve, poor fit].
